This assay deals with T1, recombinant human Siglec-10-Fc (R & D Systems) (human) (UniProt Q96LC7).
T1 sequence: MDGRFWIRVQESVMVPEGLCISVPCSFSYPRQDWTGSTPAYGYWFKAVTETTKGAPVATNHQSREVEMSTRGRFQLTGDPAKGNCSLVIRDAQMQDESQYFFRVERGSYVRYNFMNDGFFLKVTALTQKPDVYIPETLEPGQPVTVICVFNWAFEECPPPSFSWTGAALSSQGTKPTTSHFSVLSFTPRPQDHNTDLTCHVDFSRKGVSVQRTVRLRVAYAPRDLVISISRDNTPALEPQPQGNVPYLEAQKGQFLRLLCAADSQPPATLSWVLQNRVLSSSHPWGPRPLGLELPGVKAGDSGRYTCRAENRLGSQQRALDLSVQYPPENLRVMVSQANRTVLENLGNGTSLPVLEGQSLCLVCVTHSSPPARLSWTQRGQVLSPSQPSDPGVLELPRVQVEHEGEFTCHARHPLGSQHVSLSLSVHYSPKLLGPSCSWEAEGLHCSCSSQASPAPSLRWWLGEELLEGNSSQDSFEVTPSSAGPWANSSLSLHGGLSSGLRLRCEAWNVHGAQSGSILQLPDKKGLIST
The experiment in a line: soluble Siglec-10-Fc reverses suppression by CD52^hi CD4^+ T-cells in IFN-gamma ELISpot (data not shown; inferred).

Results are given in words; binding and its absence hold for the method and conditions named. Some entries that bind do so weakly or less than the wild type. Tags and fused reporters may be left off the sequences shown.

B1: native soluble CD52 glycoprotein released by human CD52^hi CD4^+ T-cells or present in Daudi / K562 cell medium (ligand)
chain: GQNDTSQTSSPS
modifications: asparagine (N)-linked terminal carbohydrate
Regarding B1, the binding entry is reported as “binds”.

For the origin of these results see patent US20150259412A1.
